Test system: jejunal mucosal 5-HT in mice (C57 BL6)
Experiment: Intestinal 5-HT depletion assay (Example B, single 150 mg/kg oral dose)
Format: in vivo, mouse
Conditions: one day after oral administration of a single 150 mg/kg dose, P-value class (ANOVA)
Protocol: The efficacy of the TPH1 inhibitors of the invention was assessed for the ability to decrease intestinal serotonin concentration in mice. Mice (C57 BL6) were administered a single 150 mg/kg dose of test article by oral gavage. Each animal was euthanized by exsanguination under isoflurane anesthesia. Jejunal intestinal mucosa was isolated and homogenized in 300 μL of a buffer containing 0.3M trichloroacetic acid, 0.1M sodium acetate, 10 mM EDTA, 20 mM sodium bisulfate and 50 mM ascorbic acid. Following centrifugation the 5-HT levels in the supernatants were measured by HPLC. The remaining mucosal pellet was solubilized overnight at 37° C. in a 0.1% sodium dodecyl sulfate buffer in 0.1N NaOH followed by determination of protein concentrations using a BCA protein assay (Pierce, Rockford, Ill. 5-HT levels were normalized to protein and data were expressed as mean percent reduction of mucosal 5-HT levels relative to vehicle control SEM (percent 5-HT reduction). All animal studies were carried out with protocols approved by the Institutional Animal Care and Use Committee.
P-values, indicating statistical significance of the data (ANOVA) are provided in the table: * refers to P<0.05, ** refers to P<0.01, *** refers to P<0.005, and refers to P<0.0005.

| Structure (SMILES) | Efficacy (statistical significance of reduction of mucosal 5-HT concentrations relative to vehicle) |
| --- | --- |
| Cc1ccn(-c2cc(Cl)ccc2[C@@H](Oc2cc(N3CCC4(CC3)CNC(C(=O)O)C4)nc(N)n2)C(F)(F)F)n1 (stereo partly drawn) [Example 10b, 8-(2-amino-6-((R)-1-(4-chloro-2-(3-methyl-1H-pyrazol-1-yl)phenyl)-2,2,2-trifluoroethoxy)pyrimidin-4-yl)-2,8-diazaspiro[4.5]decane-3-carboxylic acid] | *** (*** refers to P<0.005) |
| Cc1ccn(-c2cc(Cl)ccc2[C@@H](Oc2cc(N3CCC4(CC3)CN[C@H](C(=O)O)C4)nc(N)n2)C(F)(F)F)n1 [Example 10d, (S)-8-(2-amino-6-((R)-1-(4-chloro-2-(3-methyl-H-pyrazol-1-yl)phenyl)-2,2,2-trifluoroethoxy)pyrimidin-4-yl)-2,8-diazaspiro[4.5]decane-3-carboxylic acid] | *** (*** refers to P<0.005) |
